Assay results as given in publication PMC10353822.
Results are given in words; binding and its absence hold for the method and conditions named. In cells and extracts the contact can be indirect. These calls come from enrichment with a bait or labelling near it, and not all partners need be listed. Tags and fused reporters may be left off the sequences shown.

Biological target: T1, TRIM33 with C-terminal FLAG, Q9UPN9
T1 chain: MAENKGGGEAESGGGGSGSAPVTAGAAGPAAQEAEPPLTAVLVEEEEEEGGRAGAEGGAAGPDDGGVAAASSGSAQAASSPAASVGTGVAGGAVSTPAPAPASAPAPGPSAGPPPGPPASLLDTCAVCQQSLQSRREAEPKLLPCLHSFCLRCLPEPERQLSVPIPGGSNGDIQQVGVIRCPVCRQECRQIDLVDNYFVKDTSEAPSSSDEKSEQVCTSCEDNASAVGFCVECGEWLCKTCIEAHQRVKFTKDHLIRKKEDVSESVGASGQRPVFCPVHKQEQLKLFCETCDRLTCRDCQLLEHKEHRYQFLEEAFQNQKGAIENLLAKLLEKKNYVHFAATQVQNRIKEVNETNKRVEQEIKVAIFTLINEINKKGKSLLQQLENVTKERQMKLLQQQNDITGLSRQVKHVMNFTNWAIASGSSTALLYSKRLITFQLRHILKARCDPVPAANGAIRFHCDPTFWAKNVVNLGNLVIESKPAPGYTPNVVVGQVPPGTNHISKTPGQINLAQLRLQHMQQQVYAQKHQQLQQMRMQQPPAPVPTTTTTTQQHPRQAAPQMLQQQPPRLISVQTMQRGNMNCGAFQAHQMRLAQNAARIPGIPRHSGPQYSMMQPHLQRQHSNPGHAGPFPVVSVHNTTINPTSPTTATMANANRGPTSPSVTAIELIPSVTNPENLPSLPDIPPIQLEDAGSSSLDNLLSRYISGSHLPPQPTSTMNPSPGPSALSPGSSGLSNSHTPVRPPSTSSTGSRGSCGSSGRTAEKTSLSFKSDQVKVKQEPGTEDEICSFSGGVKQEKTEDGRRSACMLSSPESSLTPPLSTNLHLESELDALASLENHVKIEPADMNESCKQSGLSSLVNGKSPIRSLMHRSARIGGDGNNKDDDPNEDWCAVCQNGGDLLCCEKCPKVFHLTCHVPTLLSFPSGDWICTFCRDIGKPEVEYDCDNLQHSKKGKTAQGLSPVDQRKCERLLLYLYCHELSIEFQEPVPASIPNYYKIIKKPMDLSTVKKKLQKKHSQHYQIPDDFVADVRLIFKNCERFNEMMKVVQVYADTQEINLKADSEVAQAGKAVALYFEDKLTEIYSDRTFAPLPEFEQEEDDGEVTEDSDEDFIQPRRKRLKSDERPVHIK
Assay: affinity purification with mass spectrometry; TRIM33-FLAG expressed in AGS-EBV-Z cells, dox 24 h; 6 mg lysate on anti-FLAG M2 magnetic beads 4 h at 4°C; RIPA buffer (50 mM Tris-HCl pH 8.0, 300 mM NaCl, 0.1% sodium deoxycholate, 0.5% NP40 substitute, 2 mM EDTA); two independent experiments
Details: remark: other sources report otherwise

B1: TRIM28 (endogenous), Q13263 1-835 (protein)
chain: MAASAAAASAAAASAASGSPGPGEGSAGGEKRSTAPSAAASASASAAASSPAGGGAEALELLEHCGVCRERLRPEREPRLLPCLHSACSACLGPAAPAAANSSGDGGAAGDGTVVDCPVCKQQCFSKDIVENYFMRDSGSKAATDAQDANQCCTSCEDNAPATSYCVECSEPLCETCVEAHQRVKYTKDHTVRSTGPAKSRDGERTVYCNVHKHEPLVLFCESCDTLTCRDCQLNAHKDHQYQFLEDAVRNQRKLLASLVKRLGDKHATLQKSTKEVRSSIRQVSDVQKRVQVDVKMAILQIMKELNKRGRVLVNDAQKVTEGQQERLERQHWTMTKIQKHQEHILRFASWALESDNNTALLLSKKLIYFQLHRALKMIVDPVEPHGEMKFQWDLNAWTKSAEAFGKIVAERPGTNSTGPAPMAPPRAPGPLSKQGSGSSQPMEVQEGYGFGSGDDPYSSAEPHVSGVKRSRSGEGEVSGLMRKVPRVSLERLDLDLTADSQPPVFKVFPGSTTEDYNLIVIERGAAAAATGQPGTAPAGTPGAPPLAGMAIVKEEETEAAIGAPPTATEGPETKPVLMALAEGPGAEGPRLASPSGSTSSGLEVVAPEGTSAPGGGPGTLDDSATICRVCQKPGDLVMCNQCEFCFHLDCHLPALQDVPGEEWSCSLCHVLPDLKEEDGSLSLDGADSTGVVAKLSPANQRKCERVLLALFCHEPCRPLHQLATDSTFSLDQPGGTLDLTLIRARLQEKLSPPYSSPQEFAQDVGRMFKQFNKLTEDKADVQSIIGLQRFFETRMNEAFGDTKFSAVLVEPPPMSLPGAGLSSQELSGGPGDGP
- binding: binds

B2: TRIM24 (endogenous), O15164 1-1050 (protein)
chain: MEVAVEKAVAAAAAASAAASGGPSAAPSGENEAESRQGPDSERGGEAARLNLLDTCAVCHQNIQSRAPKLLPCLHSFCQRCLPAPQRYLMLPAPMLGSAETPPPVPAPGSPVSGSSPFATQVGVIRCPVCSQECAERHIIDNFFVKDTTEVPSSTVEKSNQVCTSCEDNAEANGFCVECVEWLCKTCIRAHQRVKFTKDHTVRQKEEVSPEAVGVTSQRPVFCPFHKKEQLKLYCETCDKLTCRDCQLLEHKEHRYQFIEEAFQNQKVIIDTLITKLMEKTKYIKFTGNQIQNRIIEVNQNQKQVEQDIKVAIFTLMVEINKKGKALLHQLESLAKDHRMKLMQQQQEVAGLSKQLEHVMHFSKWAVSSGSSTALLYSKRLITYRLRHLLRARCDASPVTNNTIQFHCDPSFWAQNIINLGSLVIEDKESQPQMPKQNPVVEQNSQPPSGLSSNQLSKFPTQISLAQLRLQHMQQQVMAQRQQVQRRPAPVGLPNPRMQGPIQQPSISHQQPPPRLINFQNHSPKPNGPVLPPHPQQLRYPPNQNIPRQAIKPNPLQMAFLAQQAIKQWQISSGQGTPSTTNSTSSTPSSPTITSAAGYDGKAFGSPMIDLSSPVGGSYNLPSLPDIDCSSTIMLDNIVRKDTNIDHGQPRPPSNRTVQSPNSSVPSPGLAGPVTMTSVHPPIRSPSASSVGSRGSSGSSSKPAGADSTHKVPVVMLEPIRIKQENSGPPENYDFPVVIVKQESDEESRPQNANYPRSILTSLLLNSSQSSTSEETVLRSDAPDSTGDQPGLHQDNSSNGKSEWLDPSQKSPLHVGETRKEDDPNEDWCAVCQNGGELLCCEKCPKVFHLSCHVPTLTNFPSGEWICTFCRDLSKPEVEYDCDAPSHNSEKKKTEGLVKLTPIDKRKCERLLLFLYCHEMSLAFQDPVPLTVPDYYKIIKNPMDLSTIKKRLQEDYSMYSKPEDFVADFRLIFQNCAEFNEPDSEVANAGIKLENYFEELLKNLYPEKRFPKPEFRNESEDNKFSDDSDDDFVQPRKKRLKSIEERQLLK
- binding: binds
